Assay results: paper PMC11720448
Results are given in words; binding and its absence hold for the method and conditions named. Binding seen in cells or lysates may run through a third protein. Some binding calls cover weakened binding; strength is not graded here.

Chains of the proteins cited; added tags and fusions are not shown. Lines headed by an entry give the natural chain unless they say otherwise; changes in a name come on top.
UniProt Q9UPS8: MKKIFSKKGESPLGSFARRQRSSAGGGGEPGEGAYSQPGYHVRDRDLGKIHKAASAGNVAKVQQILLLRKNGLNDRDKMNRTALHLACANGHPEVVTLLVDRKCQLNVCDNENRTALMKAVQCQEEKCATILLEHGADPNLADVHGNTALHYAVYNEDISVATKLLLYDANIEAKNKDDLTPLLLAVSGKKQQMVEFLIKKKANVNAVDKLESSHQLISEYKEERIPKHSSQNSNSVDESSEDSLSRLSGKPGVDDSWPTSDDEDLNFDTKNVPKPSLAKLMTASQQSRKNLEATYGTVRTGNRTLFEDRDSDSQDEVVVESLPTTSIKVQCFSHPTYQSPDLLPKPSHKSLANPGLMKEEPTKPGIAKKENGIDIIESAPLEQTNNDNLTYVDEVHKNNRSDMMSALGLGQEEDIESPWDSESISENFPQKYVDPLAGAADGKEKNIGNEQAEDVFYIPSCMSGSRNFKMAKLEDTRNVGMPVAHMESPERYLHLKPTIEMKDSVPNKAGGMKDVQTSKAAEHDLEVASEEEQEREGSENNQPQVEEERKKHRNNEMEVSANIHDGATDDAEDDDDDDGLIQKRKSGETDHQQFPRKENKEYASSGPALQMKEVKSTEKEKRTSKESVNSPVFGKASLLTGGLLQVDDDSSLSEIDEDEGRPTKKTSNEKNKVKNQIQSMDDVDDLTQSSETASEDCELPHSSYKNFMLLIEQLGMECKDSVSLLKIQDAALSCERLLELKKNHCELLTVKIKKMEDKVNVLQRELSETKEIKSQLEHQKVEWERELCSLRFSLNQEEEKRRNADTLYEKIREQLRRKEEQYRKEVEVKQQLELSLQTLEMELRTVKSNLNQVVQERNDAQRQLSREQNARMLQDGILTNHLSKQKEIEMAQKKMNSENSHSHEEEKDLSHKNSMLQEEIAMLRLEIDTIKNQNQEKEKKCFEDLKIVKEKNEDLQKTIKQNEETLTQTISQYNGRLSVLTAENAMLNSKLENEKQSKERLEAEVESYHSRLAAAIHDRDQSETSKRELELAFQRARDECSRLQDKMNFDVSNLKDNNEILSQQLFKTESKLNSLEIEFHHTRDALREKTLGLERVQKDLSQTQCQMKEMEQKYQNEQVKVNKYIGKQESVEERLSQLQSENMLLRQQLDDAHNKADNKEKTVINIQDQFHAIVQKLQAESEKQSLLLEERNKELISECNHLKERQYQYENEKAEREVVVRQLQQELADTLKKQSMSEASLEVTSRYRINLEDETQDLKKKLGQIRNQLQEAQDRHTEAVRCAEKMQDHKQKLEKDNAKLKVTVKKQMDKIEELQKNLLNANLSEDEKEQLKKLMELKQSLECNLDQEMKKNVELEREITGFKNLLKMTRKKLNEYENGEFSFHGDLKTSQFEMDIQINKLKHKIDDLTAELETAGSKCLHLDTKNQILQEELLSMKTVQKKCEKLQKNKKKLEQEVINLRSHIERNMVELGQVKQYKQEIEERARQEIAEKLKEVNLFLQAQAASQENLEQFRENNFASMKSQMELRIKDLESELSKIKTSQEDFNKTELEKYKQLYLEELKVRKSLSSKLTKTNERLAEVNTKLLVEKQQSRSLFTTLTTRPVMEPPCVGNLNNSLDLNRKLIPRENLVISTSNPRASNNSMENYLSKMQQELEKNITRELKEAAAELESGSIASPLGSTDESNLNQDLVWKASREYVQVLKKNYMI
UniProt P41212: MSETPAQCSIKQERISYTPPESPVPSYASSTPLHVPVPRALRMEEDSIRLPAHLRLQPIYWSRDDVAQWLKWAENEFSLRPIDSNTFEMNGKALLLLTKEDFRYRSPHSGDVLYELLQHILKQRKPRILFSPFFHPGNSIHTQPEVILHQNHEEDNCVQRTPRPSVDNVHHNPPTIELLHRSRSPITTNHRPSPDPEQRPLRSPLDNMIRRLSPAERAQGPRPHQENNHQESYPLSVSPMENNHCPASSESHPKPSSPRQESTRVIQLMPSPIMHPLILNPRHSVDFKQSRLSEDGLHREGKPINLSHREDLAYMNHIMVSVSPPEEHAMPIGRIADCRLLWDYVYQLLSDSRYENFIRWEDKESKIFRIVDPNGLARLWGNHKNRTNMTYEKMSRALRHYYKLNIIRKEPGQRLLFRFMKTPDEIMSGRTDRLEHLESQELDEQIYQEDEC
UniProt Q13227: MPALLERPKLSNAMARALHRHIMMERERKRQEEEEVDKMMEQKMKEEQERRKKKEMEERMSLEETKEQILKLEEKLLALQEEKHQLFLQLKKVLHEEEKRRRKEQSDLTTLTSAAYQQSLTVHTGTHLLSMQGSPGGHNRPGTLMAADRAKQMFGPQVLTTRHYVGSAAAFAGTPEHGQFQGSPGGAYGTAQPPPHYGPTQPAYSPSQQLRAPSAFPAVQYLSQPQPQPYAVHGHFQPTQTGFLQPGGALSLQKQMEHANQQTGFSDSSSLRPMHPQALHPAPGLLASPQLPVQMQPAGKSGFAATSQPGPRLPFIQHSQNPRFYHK

How the values were obtained:
Assay in all cases: proximity ligation; HeLa cells overexpressing myc-ETV6 (wt or mutant) and FLAG-ANKRD26 alone or in combination, fixed after 48 h, Duolink In Situ Red Mouse/Rabbit kit; antibody pairs anti-ETV6 + anti-FLAG, anti-GPS2 + anti-FLAG, anti-GPS2 + anti-myc
FLAG-ANKRD26 = FLAG-ANKRD26 (UniProt Q9UPS8)
myc-ETV6 = myc-ETV6 (UniProt P41212)
myc-ETV6 Q347P = myc-ETV6 Q347P (UniProt P41212)
myc-ETV6 W380R = myc-ETV6 W380R (UniProt P41212)

binding (FLAG-ANKRD26): binds | binding (myc-ETV6): binds | binding (myc-ETV6 Q347P): binds | binding (myc-ETV6 W380R): binds
Substance: GPS2 (from UniProt Q13227 1-327)
